This experiment deals with T1, Siglec-F with C-terminal myc epitope tag (mouse) (UniProt Q920G3).
T1 sequence: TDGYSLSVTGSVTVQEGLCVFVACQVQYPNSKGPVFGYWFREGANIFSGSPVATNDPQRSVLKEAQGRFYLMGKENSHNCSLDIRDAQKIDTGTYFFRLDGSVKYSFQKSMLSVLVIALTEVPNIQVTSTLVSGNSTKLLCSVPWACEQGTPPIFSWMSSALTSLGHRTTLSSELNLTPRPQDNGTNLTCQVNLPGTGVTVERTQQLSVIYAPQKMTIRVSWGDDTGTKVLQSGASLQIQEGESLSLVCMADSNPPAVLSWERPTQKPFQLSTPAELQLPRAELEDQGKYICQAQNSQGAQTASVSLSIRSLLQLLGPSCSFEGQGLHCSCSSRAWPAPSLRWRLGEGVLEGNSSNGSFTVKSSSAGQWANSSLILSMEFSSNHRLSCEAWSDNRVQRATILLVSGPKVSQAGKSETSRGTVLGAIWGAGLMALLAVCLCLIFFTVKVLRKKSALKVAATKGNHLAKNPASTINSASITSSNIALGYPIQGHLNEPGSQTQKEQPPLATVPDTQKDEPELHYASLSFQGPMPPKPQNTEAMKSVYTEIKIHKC
The experiment can be described thus: co-IP.

Protein sequences, listed by entry. Tags and fused reporters are not part of them.
UniProt P29351: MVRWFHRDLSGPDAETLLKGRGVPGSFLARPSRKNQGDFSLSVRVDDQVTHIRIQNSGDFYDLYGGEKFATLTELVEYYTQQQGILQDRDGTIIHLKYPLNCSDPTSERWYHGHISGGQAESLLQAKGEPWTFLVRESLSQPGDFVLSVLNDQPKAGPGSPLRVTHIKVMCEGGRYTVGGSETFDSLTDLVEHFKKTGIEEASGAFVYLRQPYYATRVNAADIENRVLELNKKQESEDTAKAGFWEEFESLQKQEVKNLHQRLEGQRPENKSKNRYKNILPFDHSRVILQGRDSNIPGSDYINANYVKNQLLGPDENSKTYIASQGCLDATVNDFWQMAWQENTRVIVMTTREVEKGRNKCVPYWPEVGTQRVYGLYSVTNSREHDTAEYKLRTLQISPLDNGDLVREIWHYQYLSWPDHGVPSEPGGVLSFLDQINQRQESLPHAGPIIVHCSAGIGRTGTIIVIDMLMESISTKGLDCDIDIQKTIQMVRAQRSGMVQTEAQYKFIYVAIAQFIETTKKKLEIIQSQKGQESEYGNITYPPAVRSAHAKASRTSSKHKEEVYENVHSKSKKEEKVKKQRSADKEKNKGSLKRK

Binding data for one substance are collected here from doi:10.1101/2020.05.12.090688.

Results are given in words; binding and its absence hold for the method and conditions named. In cells and extracts the contact can be indirect. Some results given as binding are weak or reduced against the parent protein; the word gives no strength. Tags and fused reporters may be left off the sequences shown.

Take “SHP-1 (Ptpn6) (from UniProt P29351 1-595) (enzyme)”: the binding result is “binds”.
